Experimental data reported in the supplement of paper PMC10849652.
The other results are listed elsewhere or left out.

Sequences of proteins named here, by UniProt entry; tags and fusion partners are left off. A change or cut given only in a name is not applied to a line headed by its entry.
UniProt Q9BSW2: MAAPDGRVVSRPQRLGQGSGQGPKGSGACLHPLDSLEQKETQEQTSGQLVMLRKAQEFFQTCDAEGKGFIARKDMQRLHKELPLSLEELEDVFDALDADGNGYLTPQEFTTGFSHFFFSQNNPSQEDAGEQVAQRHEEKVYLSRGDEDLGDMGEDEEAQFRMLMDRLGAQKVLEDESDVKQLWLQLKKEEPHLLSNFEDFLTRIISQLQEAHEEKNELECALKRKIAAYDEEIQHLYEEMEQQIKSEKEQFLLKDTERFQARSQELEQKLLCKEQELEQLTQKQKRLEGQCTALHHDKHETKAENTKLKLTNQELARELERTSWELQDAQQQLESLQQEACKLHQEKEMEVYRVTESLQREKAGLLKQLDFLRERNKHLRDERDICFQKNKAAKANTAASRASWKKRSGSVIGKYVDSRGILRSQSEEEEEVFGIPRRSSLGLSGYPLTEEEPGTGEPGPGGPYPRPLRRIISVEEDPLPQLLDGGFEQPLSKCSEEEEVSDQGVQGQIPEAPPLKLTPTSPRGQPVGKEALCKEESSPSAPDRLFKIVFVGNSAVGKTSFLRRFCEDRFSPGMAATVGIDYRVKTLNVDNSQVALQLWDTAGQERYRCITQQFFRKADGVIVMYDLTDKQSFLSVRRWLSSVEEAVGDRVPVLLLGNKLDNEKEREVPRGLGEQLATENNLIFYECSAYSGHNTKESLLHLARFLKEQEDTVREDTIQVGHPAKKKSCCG
UniProt Q6PJW8: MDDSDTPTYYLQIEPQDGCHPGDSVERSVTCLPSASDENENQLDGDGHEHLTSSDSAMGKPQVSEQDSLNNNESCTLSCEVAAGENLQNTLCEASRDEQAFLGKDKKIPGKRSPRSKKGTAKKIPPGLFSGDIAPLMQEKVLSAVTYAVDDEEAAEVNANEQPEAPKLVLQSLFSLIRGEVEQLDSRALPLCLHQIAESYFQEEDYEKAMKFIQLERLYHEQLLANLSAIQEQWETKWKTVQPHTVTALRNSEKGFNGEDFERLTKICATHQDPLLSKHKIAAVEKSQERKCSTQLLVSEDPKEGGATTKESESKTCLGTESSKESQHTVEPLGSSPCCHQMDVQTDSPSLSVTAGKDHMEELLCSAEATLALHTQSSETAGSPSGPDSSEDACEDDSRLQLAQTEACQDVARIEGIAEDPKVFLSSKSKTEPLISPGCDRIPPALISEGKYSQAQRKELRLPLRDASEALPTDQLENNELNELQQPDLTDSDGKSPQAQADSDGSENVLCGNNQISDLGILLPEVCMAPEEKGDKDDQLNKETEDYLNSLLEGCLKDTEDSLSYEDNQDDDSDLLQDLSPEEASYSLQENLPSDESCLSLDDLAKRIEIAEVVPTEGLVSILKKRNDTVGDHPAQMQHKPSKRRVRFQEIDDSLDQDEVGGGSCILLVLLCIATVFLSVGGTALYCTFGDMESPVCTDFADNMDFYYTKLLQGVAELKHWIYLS
UniProt P31146: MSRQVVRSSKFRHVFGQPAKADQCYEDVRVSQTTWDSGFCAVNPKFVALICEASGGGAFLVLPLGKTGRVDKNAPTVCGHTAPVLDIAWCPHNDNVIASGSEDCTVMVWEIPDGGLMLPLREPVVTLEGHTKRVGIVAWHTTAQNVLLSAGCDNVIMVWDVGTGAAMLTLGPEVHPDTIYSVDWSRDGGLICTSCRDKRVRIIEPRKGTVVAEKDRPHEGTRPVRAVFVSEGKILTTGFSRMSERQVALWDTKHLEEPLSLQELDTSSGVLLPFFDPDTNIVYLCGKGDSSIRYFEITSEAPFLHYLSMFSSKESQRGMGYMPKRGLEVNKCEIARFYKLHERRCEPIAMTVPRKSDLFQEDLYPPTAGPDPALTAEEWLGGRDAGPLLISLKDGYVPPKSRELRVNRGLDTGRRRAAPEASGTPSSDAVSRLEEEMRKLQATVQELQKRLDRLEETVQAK
UniProt Q9GZY4: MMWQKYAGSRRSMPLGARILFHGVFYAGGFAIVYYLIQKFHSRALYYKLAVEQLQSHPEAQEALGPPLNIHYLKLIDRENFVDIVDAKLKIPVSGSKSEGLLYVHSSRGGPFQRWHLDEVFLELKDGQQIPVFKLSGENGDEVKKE
UniProt Q9Y6G5, whole entry, looked up: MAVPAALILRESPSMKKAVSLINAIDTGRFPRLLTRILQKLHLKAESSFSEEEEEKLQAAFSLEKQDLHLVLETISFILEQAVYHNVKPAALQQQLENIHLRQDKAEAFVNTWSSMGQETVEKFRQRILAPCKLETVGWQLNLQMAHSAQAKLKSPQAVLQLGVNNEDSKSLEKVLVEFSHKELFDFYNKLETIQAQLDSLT
UniProt Q9H9A5, whole entry, looked up: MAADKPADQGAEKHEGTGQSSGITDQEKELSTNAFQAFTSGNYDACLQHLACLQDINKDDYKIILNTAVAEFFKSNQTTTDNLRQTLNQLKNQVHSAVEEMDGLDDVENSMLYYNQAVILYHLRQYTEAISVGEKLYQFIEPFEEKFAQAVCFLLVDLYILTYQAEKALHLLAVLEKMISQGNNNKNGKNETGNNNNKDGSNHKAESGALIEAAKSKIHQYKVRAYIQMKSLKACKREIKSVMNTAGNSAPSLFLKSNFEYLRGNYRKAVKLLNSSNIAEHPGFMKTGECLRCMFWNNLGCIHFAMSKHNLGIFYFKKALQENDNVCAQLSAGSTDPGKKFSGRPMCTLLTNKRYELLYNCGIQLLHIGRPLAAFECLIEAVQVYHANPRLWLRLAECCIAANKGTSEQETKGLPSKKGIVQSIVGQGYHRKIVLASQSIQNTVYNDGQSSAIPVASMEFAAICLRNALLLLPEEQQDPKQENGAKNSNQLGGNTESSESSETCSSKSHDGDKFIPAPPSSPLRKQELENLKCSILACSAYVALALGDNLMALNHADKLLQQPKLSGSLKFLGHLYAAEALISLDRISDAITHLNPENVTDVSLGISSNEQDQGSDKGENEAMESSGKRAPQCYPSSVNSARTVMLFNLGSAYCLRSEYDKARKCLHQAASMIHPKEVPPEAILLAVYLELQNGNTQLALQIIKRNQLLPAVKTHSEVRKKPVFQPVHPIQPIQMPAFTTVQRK
UniProt Q9NYJ1, whole entry, looked up: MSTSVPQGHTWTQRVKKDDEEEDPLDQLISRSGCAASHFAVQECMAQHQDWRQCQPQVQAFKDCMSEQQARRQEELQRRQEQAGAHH
UniProt Q92600, whole entry, looked up: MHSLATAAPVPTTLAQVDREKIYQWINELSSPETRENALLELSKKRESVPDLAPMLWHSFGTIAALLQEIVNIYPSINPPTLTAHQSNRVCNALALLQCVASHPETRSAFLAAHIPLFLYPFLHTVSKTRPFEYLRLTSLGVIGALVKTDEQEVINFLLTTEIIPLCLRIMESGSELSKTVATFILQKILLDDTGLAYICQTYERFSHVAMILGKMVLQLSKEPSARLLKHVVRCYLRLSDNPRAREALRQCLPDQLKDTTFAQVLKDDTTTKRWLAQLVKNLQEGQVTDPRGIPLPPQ
UniProt Q9H0A8, whole entry, looked up: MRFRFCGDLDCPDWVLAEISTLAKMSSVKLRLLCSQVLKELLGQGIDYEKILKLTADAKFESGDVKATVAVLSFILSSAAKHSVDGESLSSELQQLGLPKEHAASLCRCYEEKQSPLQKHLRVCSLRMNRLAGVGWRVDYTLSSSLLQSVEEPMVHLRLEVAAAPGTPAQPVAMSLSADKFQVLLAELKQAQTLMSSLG
UniProt O95639, whole entry, looked up: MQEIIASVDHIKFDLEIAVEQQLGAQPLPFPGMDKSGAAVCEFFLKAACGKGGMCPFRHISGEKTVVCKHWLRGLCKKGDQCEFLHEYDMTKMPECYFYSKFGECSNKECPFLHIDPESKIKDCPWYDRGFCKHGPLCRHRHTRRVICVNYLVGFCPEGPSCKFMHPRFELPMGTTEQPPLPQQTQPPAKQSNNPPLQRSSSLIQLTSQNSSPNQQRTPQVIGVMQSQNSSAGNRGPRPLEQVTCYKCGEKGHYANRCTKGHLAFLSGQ
UniProt O75976: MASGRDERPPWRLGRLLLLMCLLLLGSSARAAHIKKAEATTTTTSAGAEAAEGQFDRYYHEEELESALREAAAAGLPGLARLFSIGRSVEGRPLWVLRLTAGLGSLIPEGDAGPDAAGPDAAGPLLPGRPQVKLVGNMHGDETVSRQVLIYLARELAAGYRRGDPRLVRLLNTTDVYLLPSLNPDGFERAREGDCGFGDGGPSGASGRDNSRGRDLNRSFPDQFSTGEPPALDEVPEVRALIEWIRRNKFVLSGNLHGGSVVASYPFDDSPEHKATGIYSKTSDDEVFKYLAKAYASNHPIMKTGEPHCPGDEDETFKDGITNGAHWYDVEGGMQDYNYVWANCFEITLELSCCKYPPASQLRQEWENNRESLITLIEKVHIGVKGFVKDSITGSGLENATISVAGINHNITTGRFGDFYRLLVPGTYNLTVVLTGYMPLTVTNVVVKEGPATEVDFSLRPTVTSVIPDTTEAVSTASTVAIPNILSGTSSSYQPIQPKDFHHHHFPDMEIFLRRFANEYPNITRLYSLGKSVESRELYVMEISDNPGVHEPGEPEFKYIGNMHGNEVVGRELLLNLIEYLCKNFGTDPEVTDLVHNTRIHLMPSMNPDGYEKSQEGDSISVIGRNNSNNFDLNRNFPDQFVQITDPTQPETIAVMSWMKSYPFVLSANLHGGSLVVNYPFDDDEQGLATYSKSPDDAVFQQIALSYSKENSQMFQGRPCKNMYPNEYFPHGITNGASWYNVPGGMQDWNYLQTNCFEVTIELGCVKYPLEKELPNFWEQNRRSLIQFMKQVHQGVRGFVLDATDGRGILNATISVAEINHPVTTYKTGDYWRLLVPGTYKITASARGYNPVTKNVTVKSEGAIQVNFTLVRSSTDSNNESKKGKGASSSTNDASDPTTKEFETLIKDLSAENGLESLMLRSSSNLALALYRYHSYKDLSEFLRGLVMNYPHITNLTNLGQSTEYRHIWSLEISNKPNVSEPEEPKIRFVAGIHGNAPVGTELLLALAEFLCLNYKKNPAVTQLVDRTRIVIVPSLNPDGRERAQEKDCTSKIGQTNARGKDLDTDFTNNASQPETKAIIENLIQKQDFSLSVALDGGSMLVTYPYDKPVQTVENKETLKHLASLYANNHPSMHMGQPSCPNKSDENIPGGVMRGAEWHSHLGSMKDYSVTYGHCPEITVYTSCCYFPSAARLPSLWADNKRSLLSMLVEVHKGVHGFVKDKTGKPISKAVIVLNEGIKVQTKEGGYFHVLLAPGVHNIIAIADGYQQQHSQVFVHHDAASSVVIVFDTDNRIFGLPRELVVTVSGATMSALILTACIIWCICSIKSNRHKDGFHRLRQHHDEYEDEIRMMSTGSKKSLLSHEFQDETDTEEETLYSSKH
UniProt Q9Y6N1: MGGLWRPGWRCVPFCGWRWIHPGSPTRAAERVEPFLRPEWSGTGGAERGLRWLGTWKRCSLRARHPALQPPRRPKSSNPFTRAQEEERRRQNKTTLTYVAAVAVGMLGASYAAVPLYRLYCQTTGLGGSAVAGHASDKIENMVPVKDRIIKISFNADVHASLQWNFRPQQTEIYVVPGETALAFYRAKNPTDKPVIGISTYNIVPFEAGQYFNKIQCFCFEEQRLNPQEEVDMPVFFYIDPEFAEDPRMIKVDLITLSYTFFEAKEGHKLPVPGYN
UniProt Q9BRF8, whole entry, looked up: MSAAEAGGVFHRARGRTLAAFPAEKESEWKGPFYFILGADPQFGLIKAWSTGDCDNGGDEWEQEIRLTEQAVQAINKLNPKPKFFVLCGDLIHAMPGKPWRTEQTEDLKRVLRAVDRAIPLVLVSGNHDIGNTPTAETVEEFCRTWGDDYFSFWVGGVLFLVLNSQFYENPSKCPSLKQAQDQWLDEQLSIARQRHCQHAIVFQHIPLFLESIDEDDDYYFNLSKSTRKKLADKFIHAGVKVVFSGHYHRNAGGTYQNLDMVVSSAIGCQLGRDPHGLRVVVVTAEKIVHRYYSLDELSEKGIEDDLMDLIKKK
UniProt O75175, whole entry, looked up: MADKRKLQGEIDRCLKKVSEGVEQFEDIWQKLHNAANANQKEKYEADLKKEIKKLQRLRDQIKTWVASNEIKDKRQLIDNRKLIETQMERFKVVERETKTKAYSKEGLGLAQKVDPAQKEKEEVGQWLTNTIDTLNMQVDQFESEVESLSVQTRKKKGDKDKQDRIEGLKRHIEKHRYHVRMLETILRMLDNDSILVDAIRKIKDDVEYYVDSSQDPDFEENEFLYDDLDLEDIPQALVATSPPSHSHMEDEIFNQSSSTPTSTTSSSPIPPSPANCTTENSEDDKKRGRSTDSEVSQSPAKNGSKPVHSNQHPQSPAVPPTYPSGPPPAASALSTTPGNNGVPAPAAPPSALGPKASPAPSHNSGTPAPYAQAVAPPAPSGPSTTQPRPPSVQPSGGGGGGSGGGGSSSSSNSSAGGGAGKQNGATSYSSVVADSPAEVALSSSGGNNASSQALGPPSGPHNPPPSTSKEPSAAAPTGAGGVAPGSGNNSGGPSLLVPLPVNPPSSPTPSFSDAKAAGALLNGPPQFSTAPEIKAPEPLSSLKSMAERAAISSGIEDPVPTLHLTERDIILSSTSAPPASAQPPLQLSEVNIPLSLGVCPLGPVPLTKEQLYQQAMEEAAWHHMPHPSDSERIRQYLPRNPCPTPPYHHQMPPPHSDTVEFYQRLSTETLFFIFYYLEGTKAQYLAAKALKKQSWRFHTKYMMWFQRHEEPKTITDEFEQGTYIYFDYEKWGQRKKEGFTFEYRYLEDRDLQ

Tests used:
Assay in all cases: log2 fold change, soluble protein after heating vs DMSO (PISA); higher = thermal stabilisation; K562 lysate, 10 uM; active = over 0.2 and 3.5 SD of the protein, either way, in both replicates (recomputed)
ibrutinib = compound: C=CC(=O)N1CCC[C@@H](n2nc(-c3ccc(Oc4ccccc4)cc3)c3c(N)ncnc32)C1 [ibrutinib]
Method in brief: (§1)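 Quantification was by TMTpro 16plex LC-MS/MS with equalised channel sums, applied to the supernatant after 21,000xg for 90 min. Samples were crude K562 extract at 1 mg/mL protein in PBS pH 7.4 with 1 mM MgCl2, treated with 10 μM compound for 30 min, heated for 3 min across 48°C-58°C, pooled and brought to 0.5% NP-40 at 4°C. Values are log-two fold changes in thermal stability relative to solvent controls, from duplicates.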

[1] = compound: CC(=O)c1cnc2ccc(-c3cc(Cl)c(O)c(Cl)c3)nc2c1N[C@H]1CC[C@H](CN(C)C)CC1
Method in brief: as §1

ralimetinib = compound: CC(C)(C)Cn1c(N)nc2ccc(-c3[nH]c(C(C)(C)C)nc3-c3ccc(F)cc3)nc21 [ralimetinib]
Method in brief: as §1

[2] = compound: CC(C)(O)CC(=O)NCCn1ccc2ncnc(Nc3ccc(Oc4cccc(C(F)(F)F)c4)c(Cl)c3)c21
Method in brief: as §1

[3] = compound: CC(C)C1=C2N=C(C=C(N2N=C1)NCC3=CC=CC=C3)NCCCCCCN
Method in brief: as §1

[4] = compound: CC1=C(C(CC(=O)N1)C2=CC=C(C=C2)C(F)(F)F)C(=O)NC3=C(C=C4C(=C3)C=NN4)F
Method in brief: as §1

[5] = compound: CC1=C(C2=C(C=C1)C(=O)C3=CC=CC=C3N2CCCN)C
Method in brief: as §1

[6] = compound: CC1=C(C=C(C=C1)NC(=O)C2=CC(=CC=C2)C(C)(C)C#N)NC3=CC4=C(C=C3)N=CN(C4=O)C
Method in brief: as §1

[7] = compound: CC1=C(C=C(C=C1)NC(=O)C2=CC(=CC=C2)N(C)C)NC(=O)C3=CC=C(C=C3)O
Method in brief: as §1

[8] = compound: CC1=CC=C(C=C1)SC2=C3C=C(SC3=CN=C2)C(=O)N
Method in brief: as §1

Measured: log2 fold change

CRACR2A isoform 2 (UniProt Q9BSW2)
inactive: ibrutinib -0.055 | [1] 0.046 | ralimetinib -0.028 | [2] -0.064 | [3] -0.04 | [4] -0.054 | [5] -0.072 | [6] -0.032 | [7] -0.013 | [8] 0.002

CNST (UniProt Q6PJW8)
inactive: ibrutinib 0 | [1] 0.006 | ralimetinib 0.031 | [2] 0.022 | [3] 0.012 | [4] 0.176 | [5] -0.01 | [6] -0.035 | [7] 0.006 | [8] -0.002

CORO1A (UniProt P31146)
inactive: ibrutinib 0.028 | [1] -0.031 | ralimetinib -0.015 | [2] -0.021 | [3] 0.055 | [4] 0.018 | [5] -0.107 | [6] 0.025 | [7] -0.036 | [8] 0.012

CPNE2 (UniProt Q96FN4)
inactive: ibrutinib -0.1 | [1] -0.003 | ralimetinib -0.057 | [2] -0.153 | [3] 0.015 | [4] -0.055 | [5] -0.009 | [6] 0.032 | [7] 0.058 | [8] -0.029

COA1 (UniProt Q9GZY4)
inactive: ibrutinib -0.028 | [1] -0.001 | ralimetinib 0.005 | [2] -0.049 | [3] 0.022 | [4] -0.001 | [5] 0.04 | [6] -0.018 | [7] 0.013 | [8] 0.008

COMMD10 (UniProt Q9Y6G5)
inactive: ibrutinib 0.055 | [1] -0.009 | ralimetinib 0.021 | [2] 0.014 | [3] -0.003 | [4] -0.007 | [5] 0.052 | [6] -0.029 | [7] -0.006 | [8] 0.021

CNOT10 (UniProt Q9H9A5)
inactive: ibrutinib -0.003 | [1] -0.013 | ralimetinib 0.012 | [2] -0.046 | [3] -0.021 | [4] 0.006 | [5] -0.025 | [6] 0.011 | [7] 0.038 | [8] -0.003

COA4 isoform 2 (UniProt Q9NYJ1)
inactive: ibrutinib -0.016 | [1] -0.109 | ralimetinib -0.015 | [2] 0.022 | [3] -0.064 | [4] 0.024 | [5] -0.024 | [6] -0.001 | [7] 0.025 | [8] 0.072

CNOT9 (UniProt Q92600)
inactive: ibrutinib 0.046 | [1] -0.002 | ralimetinib 0.012 | [2] -0.034 | [3] -0.016 | [4] 0.021 | [5] 0.001 | [6] 0.037 | [7] -0.036 | [8] 0.015

COMMD4 (UniProt Q9H0A8)
inactive: ibrutinib 0.032 | [1] 0.001 | ralimetinib 0.018 | [2] 0.05 | [3] -0.001 | [4] 0.049 | [5] -0.051 | [6] -0.022 | [7] 0.021 | [8] 0.032

CPSF4 (UniProt O95639)
inactive: ibrutinib 0.069 | [1] -0.035 | ralimetinib -0.015 | [2] -0.048 | [3] -0.051 | [4] -0.027 | [5] 0.004 | [6] -0.108 | [7] 0.047 | [8] -0.009

CPD (UniProt O75976)
inactive: ibrutinib 0 | [1] 0.002 | ralimetinib -0.028 | [2] -0.052 | [3] -0.012 | [4] 0.034 | [5] -0.047 | [6] -0.007 | [7] -0.013 | [8] -0.023

COX11 (UniProt Q9Y6N1)
inactive: ibrutinib 0.05 | [1] -0.01 | ralimetinib -0.055 | [2] 0.373 | [3] 0.009 | [4] -0.059 | [5] 0.027 | [6] 0.035 | [7] 0.026 | [8] 0.011

CPPED1 (UniProt Q9BRF8)
inactive: ibrutinib 0.007 | [1] -0.013 | ralimetinib 0.014 | [2] -0.04 | [3] -0.006 | [4] -0.016 | [5] -0.023 | [6] 0.016 | [7] 0.022 | [8] -0.001

CNOT3 (UniProt O75175)
inactive: ibrutinib 0.023 | [1] -0.005 | ralimetinib 0.036 | [2] 0.021 | [3] -0.012 | [4] -0.023 | [5] -0.018 | [6] -0.072 | [7] 0.007 | [8] -0.01

Two consecutive entries from above, quoted:
CPD (UniProt O75976)
inactive: ibrutinib 0 | [1] 0.002 | ralimetinib -0.028 | [2] -0.052 | [3] -0.012 | [4] 0.034 | [5] -0.047 | [6] -0.007 | [7] -0.013 | [8] -0.023

COX11 (UniProt Q9Y6N1)
inactive: ibrutinib 0.05 | [1] -0.01 | ralimetinib -0.055 | [2] 0.373 | [3] 0.009 | [4] -0.059 | [5] 0.027 | [6] 0.035 | [7] 0.026 | [8] 0.011
